Patent publication US6808893
No constants are given. Whether binding was seen depends on the method and setting. For some assays here: In cells and extracts the contact can be indirect. Some results given as binding are weak or reduced against the parent protein; the word gives no strength.

By UniProt entry, the sequences of proteins in these tests, tags left out. Where a name states a change or a piece, a line headed by the entry shows the natural chain unless it says otherwise.
UniProt Q9QWN8: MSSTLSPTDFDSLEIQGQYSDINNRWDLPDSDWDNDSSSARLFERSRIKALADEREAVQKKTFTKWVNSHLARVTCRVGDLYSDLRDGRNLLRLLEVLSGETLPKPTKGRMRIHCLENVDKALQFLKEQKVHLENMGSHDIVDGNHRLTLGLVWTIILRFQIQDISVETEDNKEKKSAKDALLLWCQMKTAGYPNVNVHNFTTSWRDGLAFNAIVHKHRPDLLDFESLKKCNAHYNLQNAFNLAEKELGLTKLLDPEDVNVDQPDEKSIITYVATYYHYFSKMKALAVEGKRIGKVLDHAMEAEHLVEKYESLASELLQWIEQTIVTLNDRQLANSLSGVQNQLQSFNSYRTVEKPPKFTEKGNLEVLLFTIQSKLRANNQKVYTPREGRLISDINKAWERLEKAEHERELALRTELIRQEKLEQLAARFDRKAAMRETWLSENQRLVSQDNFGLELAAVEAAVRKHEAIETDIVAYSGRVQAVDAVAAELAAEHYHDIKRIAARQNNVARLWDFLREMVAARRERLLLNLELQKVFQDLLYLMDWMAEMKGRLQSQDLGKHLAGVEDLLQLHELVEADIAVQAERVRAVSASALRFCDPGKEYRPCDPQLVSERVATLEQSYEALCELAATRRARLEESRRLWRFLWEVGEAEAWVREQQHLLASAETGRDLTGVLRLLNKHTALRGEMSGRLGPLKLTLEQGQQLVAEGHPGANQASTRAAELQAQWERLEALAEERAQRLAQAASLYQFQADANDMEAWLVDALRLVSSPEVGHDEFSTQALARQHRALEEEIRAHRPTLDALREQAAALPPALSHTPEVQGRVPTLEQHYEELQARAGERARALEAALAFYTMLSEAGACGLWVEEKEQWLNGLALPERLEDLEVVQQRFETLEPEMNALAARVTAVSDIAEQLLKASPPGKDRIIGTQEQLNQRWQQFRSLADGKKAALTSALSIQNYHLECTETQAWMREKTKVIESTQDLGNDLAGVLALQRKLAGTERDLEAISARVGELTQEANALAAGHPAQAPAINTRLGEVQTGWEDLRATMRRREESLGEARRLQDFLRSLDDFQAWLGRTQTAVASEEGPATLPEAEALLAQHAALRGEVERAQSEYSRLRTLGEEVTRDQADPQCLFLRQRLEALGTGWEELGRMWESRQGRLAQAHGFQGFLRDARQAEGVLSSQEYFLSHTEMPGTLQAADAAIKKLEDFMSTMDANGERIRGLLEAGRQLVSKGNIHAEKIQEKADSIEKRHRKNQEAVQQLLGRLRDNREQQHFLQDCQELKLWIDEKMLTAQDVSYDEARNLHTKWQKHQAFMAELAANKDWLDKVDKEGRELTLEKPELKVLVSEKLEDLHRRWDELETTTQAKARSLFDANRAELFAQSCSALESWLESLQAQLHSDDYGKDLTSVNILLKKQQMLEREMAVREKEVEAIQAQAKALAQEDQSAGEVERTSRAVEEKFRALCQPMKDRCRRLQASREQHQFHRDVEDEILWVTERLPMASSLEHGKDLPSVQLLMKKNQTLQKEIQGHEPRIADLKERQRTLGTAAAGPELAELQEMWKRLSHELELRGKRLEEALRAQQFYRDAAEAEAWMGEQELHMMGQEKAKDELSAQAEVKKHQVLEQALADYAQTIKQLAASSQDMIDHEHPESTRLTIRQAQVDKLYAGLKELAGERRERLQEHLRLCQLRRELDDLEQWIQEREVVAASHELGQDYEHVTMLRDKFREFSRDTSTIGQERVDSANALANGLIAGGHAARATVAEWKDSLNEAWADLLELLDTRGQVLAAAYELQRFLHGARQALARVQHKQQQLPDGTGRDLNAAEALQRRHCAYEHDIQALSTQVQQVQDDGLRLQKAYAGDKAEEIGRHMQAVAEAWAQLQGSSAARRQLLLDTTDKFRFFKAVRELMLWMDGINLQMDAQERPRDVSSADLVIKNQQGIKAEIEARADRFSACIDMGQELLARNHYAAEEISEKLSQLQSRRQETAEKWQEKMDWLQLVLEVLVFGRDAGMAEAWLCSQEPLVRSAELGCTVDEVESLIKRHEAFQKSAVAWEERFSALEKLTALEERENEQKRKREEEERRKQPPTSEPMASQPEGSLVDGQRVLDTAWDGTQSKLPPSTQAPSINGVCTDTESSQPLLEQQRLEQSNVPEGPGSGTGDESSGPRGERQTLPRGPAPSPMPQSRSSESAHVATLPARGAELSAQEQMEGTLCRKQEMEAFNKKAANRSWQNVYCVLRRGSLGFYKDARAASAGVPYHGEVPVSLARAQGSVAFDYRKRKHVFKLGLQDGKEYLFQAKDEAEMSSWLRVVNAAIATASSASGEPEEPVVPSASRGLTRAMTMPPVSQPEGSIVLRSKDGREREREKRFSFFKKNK
UniProt Q63686: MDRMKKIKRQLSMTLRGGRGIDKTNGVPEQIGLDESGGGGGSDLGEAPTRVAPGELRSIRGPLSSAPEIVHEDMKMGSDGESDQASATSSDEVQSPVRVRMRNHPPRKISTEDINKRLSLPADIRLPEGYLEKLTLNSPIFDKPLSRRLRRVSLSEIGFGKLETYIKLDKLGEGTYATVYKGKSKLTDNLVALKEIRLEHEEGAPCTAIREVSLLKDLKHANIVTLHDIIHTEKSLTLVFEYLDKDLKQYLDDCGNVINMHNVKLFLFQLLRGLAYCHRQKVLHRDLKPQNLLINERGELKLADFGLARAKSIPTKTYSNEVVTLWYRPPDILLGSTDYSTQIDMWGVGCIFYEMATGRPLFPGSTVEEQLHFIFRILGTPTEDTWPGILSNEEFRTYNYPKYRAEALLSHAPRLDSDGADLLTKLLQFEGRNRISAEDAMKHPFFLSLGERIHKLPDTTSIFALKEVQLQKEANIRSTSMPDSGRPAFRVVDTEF
UniProt O15085: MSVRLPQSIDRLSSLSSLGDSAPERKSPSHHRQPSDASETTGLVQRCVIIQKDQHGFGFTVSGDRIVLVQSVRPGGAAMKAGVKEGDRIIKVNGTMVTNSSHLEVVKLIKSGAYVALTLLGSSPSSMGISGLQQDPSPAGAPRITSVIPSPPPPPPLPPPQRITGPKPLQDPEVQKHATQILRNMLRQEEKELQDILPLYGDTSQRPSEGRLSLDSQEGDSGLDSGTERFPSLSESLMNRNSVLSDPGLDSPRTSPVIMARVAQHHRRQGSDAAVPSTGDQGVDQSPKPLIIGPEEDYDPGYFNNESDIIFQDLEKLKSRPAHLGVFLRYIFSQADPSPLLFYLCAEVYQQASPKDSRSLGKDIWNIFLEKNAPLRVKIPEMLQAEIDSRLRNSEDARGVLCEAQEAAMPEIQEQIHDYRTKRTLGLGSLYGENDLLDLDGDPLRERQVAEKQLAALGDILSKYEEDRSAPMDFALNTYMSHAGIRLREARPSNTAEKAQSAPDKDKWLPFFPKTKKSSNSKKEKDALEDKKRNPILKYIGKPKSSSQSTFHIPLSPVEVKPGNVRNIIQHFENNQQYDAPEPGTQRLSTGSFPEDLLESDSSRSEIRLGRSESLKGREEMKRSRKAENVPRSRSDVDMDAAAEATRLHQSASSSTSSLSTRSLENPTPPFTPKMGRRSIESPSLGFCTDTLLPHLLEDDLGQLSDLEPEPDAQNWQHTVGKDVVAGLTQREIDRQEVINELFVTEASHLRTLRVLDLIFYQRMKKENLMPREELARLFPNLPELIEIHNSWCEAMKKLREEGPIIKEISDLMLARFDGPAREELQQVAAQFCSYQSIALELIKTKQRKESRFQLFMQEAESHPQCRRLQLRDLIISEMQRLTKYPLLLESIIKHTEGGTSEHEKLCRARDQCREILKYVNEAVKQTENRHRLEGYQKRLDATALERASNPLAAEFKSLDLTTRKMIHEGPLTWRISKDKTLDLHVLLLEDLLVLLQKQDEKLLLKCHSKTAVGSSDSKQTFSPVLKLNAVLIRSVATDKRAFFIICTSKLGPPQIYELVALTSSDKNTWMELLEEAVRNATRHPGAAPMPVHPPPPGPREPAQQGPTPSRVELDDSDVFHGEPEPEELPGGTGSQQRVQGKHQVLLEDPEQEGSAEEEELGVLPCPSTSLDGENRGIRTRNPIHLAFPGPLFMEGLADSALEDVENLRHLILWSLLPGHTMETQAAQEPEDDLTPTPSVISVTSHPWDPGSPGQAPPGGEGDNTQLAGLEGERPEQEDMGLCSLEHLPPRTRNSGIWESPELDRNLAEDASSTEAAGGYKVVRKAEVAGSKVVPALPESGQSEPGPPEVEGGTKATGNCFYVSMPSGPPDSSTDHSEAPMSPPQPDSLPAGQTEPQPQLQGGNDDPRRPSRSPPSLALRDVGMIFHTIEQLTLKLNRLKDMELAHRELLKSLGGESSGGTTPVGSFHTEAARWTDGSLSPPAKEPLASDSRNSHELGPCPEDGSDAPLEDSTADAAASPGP
UniProt Q9ES67: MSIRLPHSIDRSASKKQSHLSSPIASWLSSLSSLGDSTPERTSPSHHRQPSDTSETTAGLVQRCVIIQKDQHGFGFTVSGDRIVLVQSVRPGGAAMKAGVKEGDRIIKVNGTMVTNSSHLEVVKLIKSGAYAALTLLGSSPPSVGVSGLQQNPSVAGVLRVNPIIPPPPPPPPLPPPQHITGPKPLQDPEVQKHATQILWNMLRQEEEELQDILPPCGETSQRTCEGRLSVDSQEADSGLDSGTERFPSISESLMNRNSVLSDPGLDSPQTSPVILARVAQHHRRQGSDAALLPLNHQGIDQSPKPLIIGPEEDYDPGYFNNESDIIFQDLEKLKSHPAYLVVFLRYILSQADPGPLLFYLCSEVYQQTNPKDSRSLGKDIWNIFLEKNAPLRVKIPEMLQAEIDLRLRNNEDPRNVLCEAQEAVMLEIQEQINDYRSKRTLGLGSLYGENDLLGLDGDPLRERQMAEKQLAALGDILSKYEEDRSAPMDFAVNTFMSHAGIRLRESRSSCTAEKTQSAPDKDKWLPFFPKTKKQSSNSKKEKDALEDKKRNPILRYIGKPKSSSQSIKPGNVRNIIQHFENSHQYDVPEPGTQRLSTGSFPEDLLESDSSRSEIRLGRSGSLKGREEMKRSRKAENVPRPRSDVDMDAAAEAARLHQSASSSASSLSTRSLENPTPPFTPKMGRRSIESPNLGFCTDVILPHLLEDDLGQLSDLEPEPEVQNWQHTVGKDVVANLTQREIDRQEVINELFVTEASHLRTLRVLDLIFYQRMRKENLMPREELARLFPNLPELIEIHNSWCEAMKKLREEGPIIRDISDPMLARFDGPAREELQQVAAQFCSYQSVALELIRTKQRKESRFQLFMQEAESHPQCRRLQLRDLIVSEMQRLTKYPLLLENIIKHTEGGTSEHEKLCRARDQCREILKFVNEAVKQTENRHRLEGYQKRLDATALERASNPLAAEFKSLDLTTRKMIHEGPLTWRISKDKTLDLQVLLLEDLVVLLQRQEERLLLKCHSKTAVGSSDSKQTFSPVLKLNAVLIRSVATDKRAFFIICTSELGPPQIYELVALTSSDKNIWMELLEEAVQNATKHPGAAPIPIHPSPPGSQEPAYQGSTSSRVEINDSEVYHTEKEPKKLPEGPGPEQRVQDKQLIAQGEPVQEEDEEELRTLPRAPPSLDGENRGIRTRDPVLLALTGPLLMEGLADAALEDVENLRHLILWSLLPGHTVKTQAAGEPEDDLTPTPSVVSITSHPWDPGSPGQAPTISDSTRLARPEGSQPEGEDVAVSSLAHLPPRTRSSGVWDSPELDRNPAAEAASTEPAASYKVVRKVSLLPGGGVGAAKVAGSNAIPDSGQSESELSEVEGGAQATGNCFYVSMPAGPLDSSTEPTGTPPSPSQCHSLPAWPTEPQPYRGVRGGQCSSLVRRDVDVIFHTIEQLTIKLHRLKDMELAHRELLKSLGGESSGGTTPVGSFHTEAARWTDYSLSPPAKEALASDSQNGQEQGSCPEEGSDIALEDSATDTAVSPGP

Key:
[1] = biological target: T1, EAAT4, full-length glutamate transporter (rat) (UniProt O35921); experiment: co-immunoprecipitation from solubilized rat brain
T1 sequence (looked up): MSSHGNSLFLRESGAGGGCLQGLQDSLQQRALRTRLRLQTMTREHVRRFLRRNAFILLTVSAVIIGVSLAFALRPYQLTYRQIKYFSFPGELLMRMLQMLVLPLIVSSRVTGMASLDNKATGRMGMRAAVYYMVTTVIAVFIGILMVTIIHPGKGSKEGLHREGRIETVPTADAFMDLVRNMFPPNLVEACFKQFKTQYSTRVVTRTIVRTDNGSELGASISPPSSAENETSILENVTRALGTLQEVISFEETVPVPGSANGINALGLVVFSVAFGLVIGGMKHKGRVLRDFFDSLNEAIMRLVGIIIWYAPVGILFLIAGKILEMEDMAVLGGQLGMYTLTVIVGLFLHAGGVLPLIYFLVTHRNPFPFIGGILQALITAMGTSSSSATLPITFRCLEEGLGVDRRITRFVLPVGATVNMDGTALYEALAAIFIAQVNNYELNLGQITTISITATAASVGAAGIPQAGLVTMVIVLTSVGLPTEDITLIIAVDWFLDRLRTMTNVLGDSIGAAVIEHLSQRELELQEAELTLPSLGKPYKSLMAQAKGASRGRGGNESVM

[2] = biological target: T1, EAAT4, full-length glutamate transporter (rat); experiment: co-immunoprecipitation
[3] = biological target: T1, EAAT4, full-length glutamate transporter (rat); experiment: summary of yeast two-hybrid and co-immunoprecipitation
[4] = biological target: T1, EAAT4, full-length glutamate transporter (rat); experiment: co-immunoprecipitation from neonatal rat cerebellum, PCTAIRE-1 western blot
[5] = biological target: T2, EAAT4 amino terminus bait (initial 60 amino acids of EAAT4 in pGBKT7) (rat) (UniProt P04386+O35921); experiment: yeast two-hybrid
[6] = biological target: T2, EAAT4 amino terminus bait (initial 60 amino acids of EAAT4 in pGBKT7) (rat); experiment: yeast two-hybrid, initial 60 amino acids of EAAT4 as bait against rat brain cDNA library
[7] = biological target: T1, EAAT4, full-length glutamate transporter (rat); experiment: co-immunoprecipitation in heterologous cells
[8] = biological target: T1, EAAT4, full-length glutamate transporter (rat); experiment: co-immunoprecipitation with anti-c-myc antibody from EAAT4 expressing HEK cells, EAAT4 western blot
[9] = biological target: T1, EAAT4, full-length glutamate transporter (rat); experiment: co-immunoprecipitation from HEK-rEAAT4 cells with amino-terminal EAAT4 antibodies, anti-c-myc blot; also the reverse with anti-c-myc antibody

## GTRAP4-41 (glutamate transporter 4 associated protein), full-length (from UniProt Q9QWN8 2-2388)
[1]
  binding: binds

## PCTAIRE-1, native, of rat cerebellum (doublet of 62 and 68 kDa) (from UniProt Q63686 1-496) (enzyme)
[2]
  binding: binds
[3]
  binding: binds
[4]
  binding: binds

## PCTAIRE-1 yeast two-hybrid clone (>95% homology to the final 201 amino acids of rat PCTAIRE-1, in pACT2) (from UniProt Q63686 296-496) (enzyme)
[5]
  binding: binds
[6]
  binding: binds

## KIAA0380 (a close homolog of GTRAP4-48) (from UniProt O15085 1-1522)
[7]
  binding: binds

## GTRAP4-48 (glutamate transporter 4 associated protein), full-length (from UniProt Q9ES67 1-1527)
[1]
  binding: binds

## myc-tagged PCTAIRE-1a (from UniProt Q63686 1-496) (enzyme)
[8]
  binding: binds

## myc-tagged full-length GTRAP4-48 (from UniProt Q9ES67 1-1527)
[7]
  binding: binds
[9]
  binding: binds

## myc-tagged PCTAIRE-1b (from UniProt Q63686 65-496) (enzyme)
[8]
  binding: binds

## myc-tagged full-length GTRAP4-41 (from UniProt Q9QWN8 2-2388)
[7]
  binding: binds
[9]
  binding: binds
